Values from PubChem BioAssay AID1259254 (NCATS, 2017).

- Test: 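Genome-wide screen for genes that prevent DNA re-replication in cancer cells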 (primary screen)
- System: human HCT116 colorectal cancer cells
- Reagents: single siRNA against human genes
- Timing: 3 days
- Read-out: 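Imaged Hoechst DNA stain sorts each cell into a cycle phase by DNA amount; per plate, G2 fraction set to 0% for non-targeting and 100% for GMNN siRNA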
- Direction: G2 robust z-score and G2 cells, % of GMNN control: higher = more G2 cells, more excess DNA replication; raw share of cells in G2: higher = larger share of cells with G2 DNA content
- Active means: 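Active siRNAs have a G2 robust z of 5 or more median absolute deviations over the median, which in these data means about 38% or higher of GMNN control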
Shown is an unselected part of about 59,000 reagents tested. Of all reagents, about 1,550 (2.6%) are marked active. 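G2 share is only a proxy for re-replication; each gene was hit by three separate siRNAs, and active genes were retested.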 Raw values are not corrected between plates. A number with no mark means an inactive call. Reagents against one gene are numbered here. Not stated in the record: the amount of reagent.

target | reagent no. | G2 robust z-score | G2 cells, % of GMNN control | raw share of cells in G2 (%)
PCMT1 (GeneID 5110) | 1 | 0.305 | 5.11 | 7.14
PCMT1 (GeneID 5110) | 2 | -0.712 | -2.04 | 3.92
PCMT1 (GeneID 5110) | 3 | 0.00927 | 3.03 | 4.23
TMEM147 (GeneID 10430) | 1 | -0.754 | -2.34 | 4.68
TMEM147 (GeneID 10430) | 2 | 0.656 | 7.58 | 6.29
TMEM147 (GeneID 10430) | 3 | 1.23 | 11.6 | 11
OR1J1 (GeneID 347168) | 1 | -0.832 | -2.89 | 3
OR1J1 (GeneID 347168) | 2 | 0.453 | 6.16 | 5.95
OR1J1 (GeneID 347168) | 3 | 0.248 | 4.71 | 6.09
SRGAP1 (GeneID 57522) | 1 | 0.845 | 8.91 | 7.86
SRGAP1 (GeneID 57522) | 2 | 4.52 | 34.8 | 21.1
SRGAP1 (GeneID 57522) | 3 | 0.438 | 6.05 | 4.95
ALPK1 (GeneID 80216) | 1 | 0.497 | 6.46 | 7.6
ALPK1 (GeneID 80216) | 2 | 0.229 | 4.58 | 6.85
ALPK1 (GeneID 80216) | 3 | 1.1 | 10.7 | 7.11
EPX (GeneID 8288) | 1 | 6.55 (active) | 49.1 | 22.3
EPX (GeneID 8288) | 2 | 4.85 | 37.1 | 18.3
EPX (GeneID 8288) | 3 | -0.255 | 1.17 | 5.07
GAS1 (GeneID 2619) | 1 | 0.693 | 7.84 | 8.98
GAS1 (GeneID 2619) | 2 | 1.05 | 10.3 | 7.87
GAS1 (GeneID 2619) | 3 | 3.18 | 25.4 | 13.5
SFSWAP (GeneID 6433) | 1 | -1.04 | -4.37 | 3.05
SFSWAP (GeneID 6433) | 2 | -0.5 | -0.55 | 3.78
SFSWAP (GeneID 6433) | 3 | 1.73 | 15.1 | 10.8
DEFB113 (GeneID 245927) | 1 | 0.315 | 5.19 | 5.46
DEFB113 (GeneID 245927) | 2 | -0.331 | 0.638 | 3.35
DEFB113 (GeneID 245927) | 3 | -0.188 | 1.64 | 3.72
KIF4A (GeneID 24137) | 1 | 0.29 | 5.01 | 5.85
KIF4A (GeneID 24137) | 2 | 1.15 | 11 | 7.61
KIF4A (GeneID 24137) | 3 | 3.29 | 26.1 | 18
ZFYVE26 (GeneID 23503) | 1 | -0.672 | -1.76 | 2.94
ZFYVE26 (GeneID 23503) | 2 | 0.884 | 9.19 | 10.1
ZFYVE26 (GeneID 23503) | 3 | 3.56 | 28 | 15.1

Reformatted: entries from further up
ALPK1 (GeneID 80216) #2 | G2 robust z-score: 0.229; G2 cells, % of GMNN control: 4.58; raw share of cells in G2 (%): 6.85
ALPK1 (GeneID 80216) #3 | G2 robust z-score: 1.1; G2 cells, % of GMNN control: 10.7; raw share of cells in G2 (%): 7.11
EPX (GeneID 8288) #1 | G2 robust z-score: 6.55 (active); G2 cells, % of GMNN control: 49.1; raw share of cells in G2 (%): 22.3
EPX (GeneID 8288) #2 | G2 robust z-score: 4.85; G2 cells, % of GMNN control: 37.1; raw share of cells in G2 (%): 18.3
EPX (GeneID 8288) #3 | G2 robust z-score: -0.255; G2 cells, % of GMNN control: 1.17; raw share of cells in G2 (%): 5.07
GAS1 (GeneID 2619) #1 | G2 robust z-score: 0.693; G2 cells, % of GMNN control: 7.84; raw share of cells in G2 (%): 8.98
GAS1 (GeneID 2619) #2 | G2 robust z-score: 1.05; G2 cells, % of GMNN control: 10.3; raw share of cells in G2 (%): 7.87
GAS1 (GeneID 2619) #3 | G2 robust z-score: 3.18; G2 cells, % of GMNN control: 25.4; raw share of cells in G2 (%): 13.5
SFSWAP (GeneID 6433) #1 | G2 robust z-score: -1.04; G2 cells, % of GMNN control: -4.37; raw share of cells in G2 (%): 3.05
SFSWAP (GeneID 6433) #2 | G2 robust z-score: -0.5; G2 cells, % of GMNN control: -0.55; raw share of cells in G2 (%): 3.78
SFSWAP (GeneID 6433) #3 | G2 robust z-score: 1.73; G2 cells, % of GMNN control: 15.1; raw share of cells in G2 (%): 10.8

The listing continues:
target | reagent no. | G2 robust z-score | G2 cells, % of GMNN control | raw share of cells in G2 (%)
ZFP91 (GeneID 80829) | 1 | -0.0388 | 2.69 | 6.55
ZFP91 (GeneID 80829) | 2 | 4.46 | 34.3 | 16.6
ZFP91 (GeneID 80829) | 3 | -0.878 | -3.21 | 3.6
KASH5 (GeneID 147872) | 1 | -1.3 | -6.17 | 1.76
KASH5 (GeneID 147872) | 2 | 3.83 | 29.9 | 12.2
KASH5 (GeneID 147872) | 3 | 3.6 | 28.3 | 12.9
SPATA1 (GeneID 100505741) | 1 | -0.912 | -3.45 | 3.08
SPATA1 (GeneID 100505741) | 2 | 2.09 | 17.7 | 12.5
SPATA1 (GeneID 100505741) | 3 | 0.31 | 5.14 | 4.06
PXN (GeneID 5829) | 1 | -0.976 | -3.9 | 3.19
PXN (GeneID 5829) | 2 | -0.0616 | 2.53 | 4.99
PXN (GeneID 5829) | 3 | -0.778 | -2.51 | 4.12
MYO18B (GeneID 84700) | 1 | -1.4 | -6.9 | 2.23
MYO18B (GeneID 84700) | 2 | -0.0899 | 2.33 | 5.04
MYO18B (GeneID 84700) | 3 | -0.304 | 0.826 | 5.77
HES5 (GeneID 388585) | 1 | 1.44 | 13.1 | 11.6
HES5 (GeneID 388585) | 2 | 0.403 | 5.8 | 7.23
HES5 (GeneID 388585) | 3 | 2.54 | 20.9 | 11.9
TPTE2 (GeneID 93492) | 1 | 1.7 | 15 | 9.66
TPTE2 (GeneID 93492) | 2 | 0.263 | 4.82 | 5.75
TPTE2 (GeneID 93492) | 3 | 0.387 | 5.69 | 5.21
SCAMP1-AS1 (GeneID 728769) | 1 | -0.459 | -0.259 | 3.01
SCAMP1-AS1 (GeneID 728769) | 2 | 0.619 | 7.32 | 6.74
SCAMP1-AS1 (GeneID 728769) | 3 | -0.138 | 2 | 3.96
KLHL40 (GeneID 131377) | 1 | 3.55 | 28 | 14.7
KLHL40 (GeneID 131377) | 2 | 0.0367 | 3.23 | 4.13
KLHL40 (GeneID 131377) | 3 | 1.22 | 11.5 | 6.76
VARS2 (GeneID 57176) | 1 | -0.86 | -3.08 | 3.26
VARS2 (GeneID 57176) | 2 | 0.748 | 8.23 | 7.22
VARS2 (GeneID 57176) | 3 | -1.32 | -6.3 | 3.04
ETAA1 (GeneID 54465) | 1 | -0.743 | -2.26 | 2.79
ETAA1 (GeneID 54465) | 2 | 0.198 | 4.36 | 6.11
ETAA1 (GeneID 54465) | 3 | -0.0301 | 2.76 | 4.1
SLFN12L (GeneID 100506736) | 1 | -0.877 | -3.2 | 2.89
SLFN12L (GeneID 100506736) | 2 | 3.89 | 30.4 | 16.5
SLFN12L (GeneID 100506736) | 3 | 0.882 | 9.17 | 7.88
TEX261 (GeneID 113419) | 1 | -0.678 | -1.81 | 3.37
TEX261 (GeneID 113419) | 2 | 3.48 | 27.5 | 11.5
TEX261 (GeneID 113419) | 3 | -0.311 | 0.779 | 2.05
HCFC2 (GeneID 29915) | 1 | 1.09 | 10.7 | 7.93
HCFC2 (GeneID 29915) | 2 | -0.401 | 0.144 | 4.6
HCFC2 (GeneID 29915) | 3 | -0.266 | 1.1 | 3.6
ATP4A (GeneID 495) | 1 | 10.2 (active) | 74.5 | 32.4
ATP4A (GeneID 495) | 2 | 1.21 | 11.5 | 8.66
ATP4A (GeneID 495) | 3 | -0.799 | -2.65 | 3.34
ZSCAN32 (GeneID 54925) | 1 | 7.15 (active) | 53.3 | 21.6
ZSCAN32 (GeneID 54925) | 2 | 0.178 | 4.22 | 7.81
ZSCAN32 (GeneID 54925) | 3 | -0.496 | -0.524 | 3.47
KCTD2 (GeneID 23510) | 1 | 0.951 | 9.66 | 8.8
KCTD2 (GeneID 23510) | 2 | 2.74 | 22.2 | 12.3
KCTD2 (GeneID 23510) | 3 | -1.1 | -4.75 | 2.52
CD300LB (GeneID 124599) | 1 | -1.55 | -7.94 | 1.48
CD300LB (GeneID 124599) | 2 | -0.894 | -3.32 | 3.54
CD300LB (GeneID 124599) | 3 | -1.14 | -5.06 | 3.32
